Measured values reported in paper PMC4425456.
No constants are given. Whether binding was seen depends on the method and setting. In cells and extracts the contact can be indirect. Some binding calls cover weakened binding; strength is not graded here.

Sequences of proteins named here, by UniProt entry; tags and fusion partners are left off.
UniProt Q60793: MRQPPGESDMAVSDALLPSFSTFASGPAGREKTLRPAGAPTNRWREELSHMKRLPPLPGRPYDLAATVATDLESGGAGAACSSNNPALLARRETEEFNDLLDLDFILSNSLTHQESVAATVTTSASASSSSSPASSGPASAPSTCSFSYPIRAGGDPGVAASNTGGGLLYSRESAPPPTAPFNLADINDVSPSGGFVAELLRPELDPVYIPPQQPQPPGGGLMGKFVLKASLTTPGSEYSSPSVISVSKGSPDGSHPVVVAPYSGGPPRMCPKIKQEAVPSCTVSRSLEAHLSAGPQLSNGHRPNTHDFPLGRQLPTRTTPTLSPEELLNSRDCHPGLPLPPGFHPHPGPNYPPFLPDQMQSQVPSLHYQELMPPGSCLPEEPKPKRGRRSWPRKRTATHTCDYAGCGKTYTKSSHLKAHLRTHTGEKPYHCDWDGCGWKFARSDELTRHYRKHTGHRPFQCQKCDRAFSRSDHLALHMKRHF
UniProt P20263: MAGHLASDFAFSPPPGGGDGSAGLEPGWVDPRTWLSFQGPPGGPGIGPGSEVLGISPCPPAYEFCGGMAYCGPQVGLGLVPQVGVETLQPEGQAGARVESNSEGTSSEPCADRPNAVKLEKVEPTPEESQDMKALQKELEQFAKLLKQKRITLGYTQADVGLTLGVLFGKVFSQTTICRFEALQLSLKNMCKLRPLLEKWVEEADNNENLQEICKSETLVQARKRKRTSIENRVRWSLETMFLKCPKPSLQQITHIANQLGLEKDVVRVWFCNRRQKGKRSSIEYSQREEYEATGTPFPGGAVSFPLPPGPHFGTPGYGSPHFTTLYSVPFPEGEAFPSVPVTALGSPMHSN
UniProt P48432: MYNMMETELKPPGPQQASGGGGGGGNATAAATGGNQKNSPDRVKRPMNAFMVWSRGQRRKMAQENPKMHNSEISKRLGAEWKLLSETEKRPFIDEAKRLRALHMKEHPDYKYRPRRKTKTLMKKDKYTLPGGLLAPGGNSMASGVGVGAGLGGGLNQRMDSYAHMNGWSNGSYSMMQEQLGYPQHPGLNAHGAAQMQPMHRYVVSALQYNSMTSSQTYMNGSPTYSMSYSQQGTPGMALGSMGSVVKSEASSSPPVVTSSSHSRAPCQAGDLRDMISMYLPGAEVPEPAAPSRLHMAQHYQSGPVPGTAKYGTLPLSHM
UniProt Q61079: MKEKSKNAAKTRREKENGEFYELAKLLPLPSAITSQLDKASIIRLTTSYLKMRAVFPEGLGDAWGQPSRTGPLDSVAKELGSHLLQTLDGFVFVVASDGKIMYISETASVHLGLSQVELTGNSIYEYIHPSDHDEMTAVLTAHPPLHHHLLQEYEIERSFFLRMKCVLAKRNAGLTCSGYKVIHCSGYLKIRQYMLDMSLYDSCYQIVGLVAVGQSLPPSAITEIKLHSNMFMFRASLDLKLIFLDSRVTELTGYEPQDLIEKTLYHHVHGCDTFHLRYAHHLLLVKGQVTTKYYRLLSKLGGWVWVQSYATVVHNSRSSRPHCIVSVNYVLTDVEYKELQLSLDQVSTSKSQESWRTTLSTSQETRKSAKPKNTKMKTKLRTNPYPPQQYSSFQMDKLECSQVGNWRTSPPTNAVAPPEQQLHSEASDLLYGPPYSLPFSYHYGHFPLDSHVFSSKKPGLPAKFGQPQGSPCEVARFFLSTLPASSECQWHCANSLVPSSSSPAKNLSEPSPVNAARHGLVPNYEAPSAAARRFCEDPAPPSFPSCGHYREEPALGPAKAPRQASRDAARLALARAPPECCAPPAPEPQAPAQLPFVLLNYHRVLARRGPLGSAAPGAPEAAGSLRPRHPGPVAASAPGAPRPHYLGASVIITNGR

Experiments:
Assay in all cases: co-IP; total protein extract of SIM2 A6 mES cells (26 h without tetracycline); lysis buffer 50mM Hepes pH 8, 200mM NaCl, 0.1mM EDTA, 0.5% NP-40, 10% glycerol; immunoprecipitation overnight at 4°C with antibodies against the endogenous factor on protein G Dynabeads; washes in 50mM TrisHCl pH 8, 250mM NaCl, 1% Triton X-100; western blot with anti-Flag-HRP; in duplicate
[1] = molecular target: KLF4 (endogenous) (mouse (endogenous in mES cells)) (UniProt Q60793)
[2] = molecular target: T1, NANOG (endogenous) (mouse (endogenous in mES cells)) (UniProt Q80Z64)
T1 sequence: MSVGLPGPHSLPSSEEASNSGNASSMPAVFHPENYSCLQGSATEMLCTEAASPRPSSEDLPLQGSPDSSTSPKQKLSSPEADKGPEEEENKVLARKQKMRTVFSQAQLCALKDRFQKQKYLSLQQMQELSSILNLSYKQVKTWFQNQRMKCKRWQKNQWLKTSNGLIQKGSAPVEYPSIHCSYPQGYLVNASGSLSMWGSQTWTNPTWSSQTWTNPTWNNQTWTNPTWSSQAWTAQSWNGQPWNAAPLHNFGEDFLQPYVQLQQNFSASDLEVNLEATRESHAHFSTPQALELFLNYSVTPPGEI

[3] = molecular target: OCT4 (Pou5f1) (endogenous) (mouse (endogenous in mES cells)) (UniProt P20263)
[4] = molecular target: SOX2 (endogenous) (mouse (endogenous in mES cells)) (UniProt P48432)

Measured: binding

SIM2-FLAG (Flag-tagged mouse Single-minded 2) (from UniProt Q61079 1-657)
binds: all assays above
